This passage reports binding results from patent publication US20220144927A1 (SUMITOMO DAINIPPON PHARMA, published 2022).

Protein sequences, listed by entry. Tags and fused reporters are not part of them. Residues count along the entry.
UniProt P98088, residues 28-5654: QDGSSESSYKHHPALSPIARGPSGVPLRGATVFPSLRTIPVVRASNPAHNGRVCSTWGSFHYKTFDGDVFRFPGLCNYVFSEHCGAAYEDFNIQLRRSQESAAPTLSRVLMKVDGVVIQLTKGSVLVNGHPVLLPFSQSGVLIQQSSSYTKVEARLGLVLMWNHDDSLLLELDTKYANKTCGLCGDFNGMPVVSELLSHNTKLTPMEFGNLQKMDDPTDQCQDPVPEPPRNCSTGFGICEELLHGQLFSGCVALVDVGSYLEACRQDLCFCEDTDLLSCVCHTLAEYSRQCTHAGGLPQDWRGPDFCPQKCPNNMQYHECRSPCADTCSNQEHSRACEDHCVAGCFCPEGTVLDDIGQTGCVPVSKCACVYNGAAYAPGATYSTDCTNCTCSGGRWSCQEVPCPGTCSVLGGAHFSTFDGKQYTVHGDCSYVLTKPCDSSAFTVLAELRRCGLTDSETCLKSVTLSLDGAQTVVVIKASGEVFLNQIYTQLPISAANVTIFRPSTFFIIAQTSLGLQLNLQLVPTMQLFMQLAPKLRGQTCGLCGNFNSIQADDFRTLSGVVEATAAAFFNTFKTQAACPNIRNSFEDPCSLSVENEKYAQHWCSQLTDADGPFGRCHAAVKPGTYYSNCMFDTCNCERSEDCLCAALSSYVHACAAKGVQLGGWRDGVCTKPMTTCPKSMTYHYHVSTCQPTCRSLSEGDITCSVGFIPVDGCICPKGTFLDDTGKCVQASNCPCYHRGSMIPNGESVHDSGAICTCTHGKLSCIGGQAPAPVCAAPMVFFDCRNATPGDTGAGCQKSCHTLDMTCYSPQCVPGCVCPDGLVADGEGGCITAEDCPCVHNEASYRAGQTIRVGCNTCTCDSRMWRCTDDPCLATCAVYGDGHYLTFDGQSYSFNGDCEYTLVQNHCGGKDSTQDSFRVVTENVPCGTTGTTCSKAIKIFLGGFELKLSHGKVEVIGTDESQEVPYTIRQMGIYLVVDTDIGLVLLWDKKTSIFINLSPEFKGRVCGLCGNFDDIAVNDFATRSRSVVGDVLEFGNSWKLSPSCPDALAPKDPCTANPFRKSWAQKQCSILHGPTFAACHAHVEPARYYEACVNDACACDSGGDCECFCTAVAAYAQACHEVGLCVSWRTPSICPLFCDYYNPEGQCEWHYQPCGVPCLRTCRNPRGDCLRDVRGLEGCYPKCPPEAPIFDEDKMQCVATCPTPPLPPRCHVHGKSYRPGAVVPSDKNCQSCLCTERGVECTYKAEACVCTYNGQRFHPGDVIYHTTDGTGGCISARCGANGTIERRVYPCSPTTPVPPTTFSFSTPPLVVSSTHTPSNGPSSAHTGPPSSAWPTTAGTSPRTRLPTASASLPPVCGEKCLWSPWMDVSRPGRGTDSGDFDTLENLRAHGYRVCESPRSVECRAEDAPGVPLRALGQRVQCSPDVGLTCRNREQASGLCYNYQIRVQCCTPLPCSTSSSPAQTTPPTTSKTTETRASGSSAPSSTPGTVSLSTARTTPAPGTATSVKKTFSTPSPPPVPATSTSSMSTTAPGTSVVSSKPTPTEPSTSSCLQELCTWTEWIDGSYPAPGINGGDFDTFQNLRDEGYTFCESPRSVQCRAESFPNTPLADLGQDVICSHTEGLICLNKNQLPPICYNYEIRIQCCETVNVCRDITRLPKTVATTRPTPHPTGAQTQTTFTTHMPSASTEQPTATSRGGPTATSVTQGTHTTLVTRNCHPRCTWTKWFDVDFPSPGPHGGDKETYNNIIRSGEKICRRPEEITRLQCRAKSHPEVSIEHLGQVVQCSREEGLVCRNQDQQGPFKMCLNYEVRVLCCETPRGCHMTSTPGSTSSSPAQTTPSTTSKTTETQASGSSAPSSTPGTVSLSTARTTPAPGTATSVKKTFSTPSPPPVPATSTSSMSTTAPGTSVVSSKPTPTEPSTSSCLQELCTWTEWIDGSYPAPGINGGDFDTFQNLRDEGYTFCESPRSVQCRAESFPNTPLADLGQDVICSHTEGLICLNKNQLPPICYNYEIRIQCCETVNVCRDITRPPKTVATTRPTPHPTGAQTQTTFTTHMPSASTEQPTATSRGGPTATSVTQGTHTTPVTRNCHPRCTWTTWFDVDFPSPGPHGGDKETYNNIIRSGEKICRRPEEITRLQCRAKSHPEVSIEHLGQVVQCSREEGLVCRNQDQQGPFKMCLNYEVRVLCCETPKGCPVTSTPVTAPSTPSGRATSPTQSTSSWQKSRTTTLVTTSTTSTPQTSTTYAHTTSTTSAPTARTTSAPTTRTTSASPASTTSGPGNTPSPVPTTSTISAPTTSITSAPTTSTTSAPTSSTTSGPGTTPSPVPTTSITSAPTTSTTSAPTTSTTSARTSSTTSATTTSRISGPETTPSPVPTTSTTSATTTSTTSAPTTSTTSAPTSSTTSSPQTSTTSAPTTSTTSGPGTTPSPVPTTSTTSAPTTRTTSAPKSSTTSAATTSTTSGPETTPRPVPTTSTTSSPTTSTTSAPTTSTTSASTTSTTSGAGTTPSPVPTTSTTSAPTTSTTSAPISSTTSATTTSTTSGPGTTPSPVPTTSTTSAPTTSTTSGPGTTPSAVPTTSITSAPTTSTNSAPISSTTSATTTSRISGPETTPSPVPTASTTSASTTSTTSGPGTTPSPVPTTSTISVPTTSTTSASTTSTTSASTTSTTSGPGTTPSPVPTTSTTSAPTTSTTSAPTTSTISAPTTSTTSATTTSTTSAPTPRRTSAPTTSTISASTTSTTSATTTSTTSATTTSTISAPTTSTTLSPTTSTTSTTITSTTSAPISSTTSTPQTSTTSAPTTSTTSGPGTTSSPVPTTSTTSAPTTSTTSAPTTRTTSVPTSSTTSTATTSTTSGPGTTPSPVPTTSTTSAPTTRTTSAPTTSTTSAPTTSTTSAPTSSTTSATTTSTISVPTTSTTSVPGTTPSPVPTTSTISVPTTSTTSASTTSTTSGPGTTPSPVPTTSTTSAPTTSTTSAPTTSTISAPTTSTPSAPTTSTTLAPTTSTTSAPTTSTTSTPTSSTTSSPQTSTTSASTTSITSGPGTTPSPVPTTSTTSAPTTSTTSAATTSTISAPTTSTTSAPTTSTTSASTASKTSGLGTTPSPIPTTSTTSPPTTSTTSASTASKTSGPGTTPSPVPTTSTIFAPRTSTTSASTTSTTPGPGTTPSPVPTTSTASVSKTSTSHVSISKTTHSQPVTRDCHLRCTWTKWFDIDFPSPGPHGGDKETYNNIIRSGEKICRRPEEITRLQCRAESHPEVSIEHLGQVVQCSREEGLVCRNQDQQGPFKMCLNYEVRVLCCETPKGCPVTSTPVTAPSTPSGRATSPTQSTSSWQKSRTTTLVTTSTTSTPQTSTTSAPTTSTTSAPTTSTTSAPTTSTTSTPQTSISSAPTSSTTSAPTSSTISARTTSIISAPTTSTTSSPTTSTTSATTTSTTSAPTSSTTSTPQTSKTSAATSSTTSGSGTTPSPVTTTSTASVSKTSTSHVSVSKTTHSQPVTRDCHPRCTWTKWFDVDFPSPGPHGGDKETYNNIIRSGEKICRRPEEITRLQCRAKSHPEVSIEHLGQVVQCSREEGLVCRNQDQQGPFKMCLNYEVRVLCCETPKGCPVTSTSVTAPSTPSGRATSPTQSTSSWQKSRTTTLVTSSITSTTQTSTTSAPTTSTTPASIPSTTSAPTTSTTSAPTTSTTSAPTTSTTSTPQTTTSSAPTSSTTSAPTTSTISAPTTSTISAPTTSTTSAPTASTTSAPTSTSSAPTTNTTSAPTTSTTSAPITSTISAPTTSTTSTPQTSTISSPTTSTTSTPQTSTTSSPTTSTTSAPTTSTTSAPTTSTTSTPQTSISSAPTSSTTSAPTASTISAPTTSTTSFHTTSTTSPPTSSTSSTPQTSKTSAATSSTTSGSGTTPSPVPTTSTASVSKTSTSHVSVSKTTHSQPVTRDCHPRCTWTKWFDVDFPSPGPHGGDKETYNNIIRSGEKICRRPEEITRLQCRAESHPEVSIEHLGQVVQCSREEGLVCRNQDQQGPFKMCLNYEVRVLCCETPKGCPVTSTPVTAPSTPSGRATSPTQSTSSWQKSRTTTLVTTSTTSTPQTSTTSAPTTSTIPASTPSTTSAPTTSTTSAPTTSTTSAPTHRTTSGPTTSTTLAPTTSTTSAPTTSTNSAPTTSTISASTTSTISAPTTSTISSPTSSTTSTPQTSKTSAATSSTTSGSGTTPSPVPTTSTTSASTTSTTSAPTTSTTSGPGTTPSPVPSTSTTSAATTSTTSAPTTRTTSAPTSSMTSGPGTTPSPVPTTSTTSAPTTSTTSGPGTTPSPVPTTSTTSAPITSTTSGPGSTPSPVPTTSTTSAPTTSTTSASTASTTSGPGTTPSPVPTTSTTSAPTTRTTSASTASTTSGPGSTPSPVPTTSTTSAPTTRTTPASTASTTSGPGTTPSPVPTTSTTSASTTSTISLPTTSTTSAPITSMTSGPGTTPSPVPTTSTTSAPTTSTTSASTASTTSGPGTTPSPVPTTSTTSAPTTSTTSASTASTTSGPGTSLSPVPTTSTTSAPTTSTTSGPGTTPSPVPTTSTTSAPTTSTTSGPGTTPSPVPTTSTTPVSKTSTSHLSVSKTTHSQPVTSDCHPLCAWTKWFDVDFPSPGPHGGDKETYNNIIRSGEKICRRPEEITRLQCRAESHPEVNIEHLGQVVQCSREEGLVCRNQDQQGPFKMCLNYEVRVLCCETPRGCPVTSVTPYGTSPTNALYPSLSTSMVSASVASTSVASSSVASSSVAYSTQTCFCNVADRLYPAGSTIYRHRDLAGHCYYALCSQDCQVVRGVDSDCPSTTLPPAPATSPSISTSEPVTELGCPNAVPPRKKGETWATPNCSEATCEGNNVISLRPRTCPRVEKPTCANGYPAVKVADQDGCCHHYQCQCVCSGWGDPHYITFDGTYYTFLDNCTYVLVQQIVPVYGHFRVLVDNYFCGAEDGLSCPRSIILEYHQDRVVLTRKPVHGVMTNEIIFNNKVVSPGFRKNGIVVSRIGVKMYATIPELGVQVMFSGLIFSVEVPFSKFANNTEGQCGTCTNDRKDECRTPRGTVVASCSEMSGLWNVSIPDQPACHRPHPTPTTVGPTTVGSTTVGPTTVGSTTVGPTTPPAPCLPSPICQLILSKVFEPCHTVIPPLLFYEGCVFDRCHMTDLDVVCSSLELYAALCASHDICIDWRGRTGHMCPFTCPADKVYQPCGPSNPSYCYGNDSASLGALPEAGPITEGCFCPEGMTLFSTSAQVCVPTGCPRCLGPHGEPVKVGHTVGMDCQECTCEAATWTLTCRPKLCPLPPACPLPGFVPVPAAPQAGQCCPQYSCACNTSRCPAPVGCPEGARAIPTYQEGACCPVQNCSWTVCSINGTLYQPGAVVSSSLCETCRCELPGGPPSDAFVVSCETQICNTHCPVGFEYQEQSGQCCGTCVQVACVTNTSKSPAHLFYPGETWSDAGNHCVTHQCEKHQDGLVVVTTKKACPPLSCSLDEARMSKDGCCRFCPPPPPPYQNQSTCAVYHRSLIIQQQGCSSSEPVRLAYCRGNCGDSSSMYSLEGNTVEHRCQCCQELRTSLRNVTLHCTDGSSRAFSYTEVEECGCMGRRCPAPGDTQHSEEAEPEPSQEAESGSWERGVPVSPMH

This assay deals with T1, mucin subtype 5AC (human, UniProt P98088 28-5654, limits assumed).
T1 construct: Not a purified recombinant protein; also called MUC5AC; crude extract antigen solution
Nature of the assay: ELISA on SW1990 tumor antigen preparations.

Results are given in words; binding and its absence hold for the method and conditions named. Some entries that bind do so weakly or less than the wild type.

B1: antibody 1 (antibody, V domains shown)
VH: EVQLLESGGGLVQPGGSLRLSCAASGFTFSNYGMSWVRQAPGKGLEWVSTISNSGRYTYFPDSVKGRFTISRDNSKNTLYLQMNSLRAEDTALYYCTRHLDYANYDAMDYWGQGTLVTVSS
VL: DIVMTQSPSSLSASVGDRVTITCRASKSVTTSDFSYMHWYQQKPGKAPKLLIYLASNLESGVPSRFSGSGSGTDFTLTISSLQPEDFATYYCQHSREFPWTFGGGTKVEIK
notes: Humanized antibody of the invention; also called H01L01
On to B1, for which the binding result is listed as “binds”.

B2: antibody 4 (antibody, V domains shown)
VH: EVQLLESGGGLVQPGGSLRLSCAASGFTFSNYGMSWVRQAPGKGLEWVSTISNSGRYTYFPDSVKGRFTISRDNSKNTLYLQMNSLRAEDTALYYCTRHLDYANYDAMDYWGQGTLVTVSS
VL: DIVMTQSPDSLAVSLGERATINCKASKSVTTSDFSYLHWYQQKPGQPPKLLIYLASNLESGVPDRFSGSGSGTDFTLTISSLQAEDVAVYYCQHSREFPWTFGGGTKLEIK
notes: Humanized antibody of the invention; also called H01L04
Regarding B2, the binding entry is on record as “binds”.

B3: antibody 16 (antibody, V domains shown)
VH: EVQLLESGGGLVQPGGSLRLSCAVSGFTFSNYGMSWVRQAPGKGLEWVSTISNSGRYTYFPDSVKGRFTISRDNSRNTLYLQMNTLRAEDTAVYYCTRHLDYANYDAMDYWGQGTPVTVSS
VL: DIVMTQSPDSLAVSLGERATINCKASKSVTTSDFSYLHWYQQKPGQPPKLLIYLASNLESGVPDRFSGSGSGTDFTLTISSLQAEDVAVYYCQHSREFPWTFGGGTKLEIK
notes: Humanized antibody of the invention; also called H04L04
In the case of B3, the binding entry was “binds”.

B4: antibody 10 (antibody, V domains shown)
VH: LVQLVESGGGVVQPGRSLRLSCAASGFTFSNYGMSWVRQAPGKGLEWVATISNSGRYTYFPDSVKGRFTISRDNSKNTLYLQMNSLRAEDTAVYYCTRHLDYANYDAMDYWGQGTLVTVSS
VL: DVVMTQSPSTLSASVGDRVTITCRASKSVTTSDFSYMHWYQQKPGQAPKLLIYLASNLESGVPSRFSGSGSGTDFTLTISSLQPEDFATYYCQHSREFPWTFGQGTKLEIK
notes: Humanized antibody of the invention; also called H03L02
On to B4, for which the binding result is on record as “binds”.

B5: antibody 9 (antibody, V domains shown)
VH: LVQLVESGGGVVQPGRSLRLSCAASGFTFSNYGMSWVRQAPGKGLEWVATISNSGRYTYFPDSVKGRFTISRDNSKNTLYLQMNSLRAEDTAVYYCTRHLDYANYDAMDYWGQGTLVTVSS
VL: DIVMTQSPSSLSASVGDRVTITCRASKSVTTSDFSYMHWYQQKPGKAPKLLIYLASNLESGVPSRFSGSGSGTDFTLTISSLQPEDFATYYCQHSREFPWTFGGGTKVEIK
notes: Humanized antibody of the invention; also called H03L01
As to B5, the binding result is recorded as “binds”.

B6: antibody 13 (antibody, V domains shown)
VH: EVQLLESGGGLVQPGGSLRLSCAVSGFTFSNYGMSWVRQAPGKGLEWVSTISNSGRYTYFPDSVKGRFTISRDNSRNTLYLQMNTLRAEDTAVYYCTRHLDYANYDAMDYWGQGTPVTVSS
VL: DIVMTQSPSSLSASVGDRVTITCRASKSVTTSDFSYMHWYQQKPGKAPKLLIYLASNLESGVPSRFSGSGSGTDFTLTISSLQPEDFATYYCQHSREFPWTFGGGTKVEIK
notes: Humanized antibody of the invention; also called H04L01
For the molecule B6, the binding entry is “binds”.

B7: antibody 11 (antibody, V domains shown)
VH: LVQLVESGGGVVQPGRSLRLSCAASGFTFSNYGMSWVRQAPGKGLEWVATISNSGRYTYFPDSVKGRFTISRDNSKNTLYLQMNSLRAEDTAVYYCTRHLDYANYDAMDYWGQGTLVTVSS
VL: DIQMTQSPSSLSASVGDRVTITCRASKSVTTSDFSYMHWYQQKPGKSPKLLIYLASNLESGVPSRFSGSGSGTDFSLTISSLQPEDFATYYCQHSREFPWTFGGGTKVEIK
notes: Humanized antibody of the invention; also called H03L03
For B7, the binding entry is “binds”.

B8: antibody 3 (antibody, V domains shown)
VH: EVQLLESGGGLVQPGGSLRLSCAASGFTFSNYGMSWVRQAPGKGLEWVSTISNSGRYTYFPDSVKGRFTISRDNSKNTLYLQMNSLRAEDTALYYCTRHLDYANYDAMDYWGQGTLVTVSS
VL: DIQMTQSPSSLSASVGDRVTITCRASKSVTTSDFSYMHWYQQKPGKSPKLLIYLASNLESGVPSRFSGSGSGTDFSLTISSLQPEDFATYYCQHSREFPWTFGGGTKVEIK
notes: Humanized antibody of the invention; also called H01L03
For the molecule B8, the binding entry is given as “binds”.

B9: antibody 14 (antibody, V domains shown)
VH: EVQLLESGGGLVQPGGSLRLSCAVSGFTFSNYGMSWVRQAPGKGLEWVSTISNSGRYTYFPDSVKGRFTISRDNSRNTLYLQMNTLRAEDTAVYYCTRHLDYANYDAMDYWGQGTPVTVSS
VL: DVVMTQSPSTLSASVGDRVTITCRASKSVTTSDFSYMHWYQQKPGQAPKLLIYLASNLESGVPSRFSGSGSGTDFTLTISSLQPEDFATYYCQHSREFPWTFGQGTKLEIK
notes: Humanized antibody of the invention; also called H04L02
For B9, the binding result was “binds”.

B10: antibody 7 (antibody, V domains shown)
VH: LVQLVESGGGVVRPGGSLRLSCAASGFTFSNYGMSWIRQAPGKGLEWVSTISNSGRYTYFPDSVKGRFTISRDNAKNSLYLQMNSLRAEDTALYYCTRHLDYANYDAMDYWGQGTLVTVSS
VL: DIQMTQSPSSLSASVGDRVTITCRASKSVTTSDFSYMHWYQQKPGKSPKLLIYLASNLESGVPSRFSGSGSGTDFSLTISSLQPEDFATYYCQHSREFPWTFGGGTKVEIK
notes: Humanized antibody of the invention; also called H02L03
With B10, the binding result was “binds”.

B11: antibody 6 (antibody, V domains shown)
VH: LVQLVESGGGVVRPGGSLRLSCAASGFTFSNYGMSWIRQAPGKGLEWVSTISNSGRYTYFPDSVKGRFTISRDNAKNSLYLQMNSLRAEDTALYYCTRHLDYANYDAMDYWGQGTLVTVSS
VL: DVVMTQSPSTLSASVGDRVTITCRASKSVTTSDFSYMHWYQQKPGQAPKLLIYLASNLESGVPSRFSGSGSGTDFTLTISSLQPEDFATYYCQHSREFPWTFGQGTKLEIK
notes: Humanized antibody of the invention; also called H02L02
For B11, the binding entry is reported as “binds”.

B12: antibody 12 (antibody, V domains shown)
VH: LVQLVESGGGVVQPGRSLRLSCAASGFTFSNYGMSWVRQAPGKGLEWVATISNSGRYTYFPDSVKGRFTISRDNSKNTLYLQMNSLRAEDTAVYYCTRHLDYANYDAMDYWGQGTLVTVSS
VL: DIVMTQSPDSLAVSLGERATINCKASKSVTTSDFSYLHWYQQKPGQPPKLLIYLASNLESGVPDRFSGSGSGTDFTLTISSLQAEDVAVYYCQHSREFPWTFGGGTKLEIK
notes: Humanized antibody of the invention; also called H03L04
In the case of B12, the binding entry is on record as “binds”.

B13: antibody 2 (antibody, V domains shown)
VH: EVQLLESGGGLVQPGGSLRLSCAASGFTFSNYGMSWVRQAPGKGLEWVSTISNSGRYTYFPDSVKGRFTISRDNSKNTLYLQMNSLRAEDTALYYCTRHLDYANYDAMDYWGQGTLVTVSS
VL: DVVMTQSPSTLSASVGDRVTITCRASKSVTTSDFSYMHWYQQKPGQAPKLLIYLASNLESGVPSRFSGSGSGTDFTLTISSLQPEDFATYYCQHSREFPWTFGQGTKLEIK
notes: Humanized antibody of the invention; also called H01L02
As to B13, the binding result was “binds”.

B14: antibody 8 (antibody, V domains shown)
VH: LVQLVESGGGVVRPGGSLRLSCAASGFTFSNYGMSWIRQAPGKGLEWVSTISNSGRYTYFPDSVKGRFTISRDNAKNSLYLQMNSLRAEDTALYYCTRHLDYANYDAMDYWGQGTLVTVSS
VL: DIVMTQSPDSLAVSLGERATINCKASKSVTTSDFSYLHWYQQKPGQPPKLLIYLASNLESGVPDRFSGSGSGTDFTLTISSLQAEDVAVYYCQHSREFPWTFGGGTKLEIK
notes: Humanized antibody of the invention; also called H02L04
B14: the binding result is on record as “binds”.

B15: antibody 15 (antibody, V domains shown)
VH: EVQLLESGGGLVQPGGSLRLSCAVSGFTFSNYGMSWVRQAPGKGLEWVSTISNSGRYTYFPDSVKGRFTISRDNSRNTLYLQMNTLRAEDTAVYYCTRHLDYANYDAMDYWGQGTPVTVSS
VL: DIQMTQSPSSLSASVGDRVTITCRASKSVTTSDFSYMHWYQQKPGKSPKLLIYLASNLESGVPSRFSGSGSGTDFSLTISSLQPEDFATYYCQHSREFPWTFGGGTKVEIK
notes: Humanized antibody of the invention; also called H04L03
For B15, the binding result was “binds”.

B16: antibody 5 (antibody, V domains shown)
VH: LVQLVESGGGVVRPGGSLRLSCAASGFTFSNYGMSWIRQAPGKGLEWVSTISNSGRYTYFPDSVKGRFTISRDNAKNSLYLQMNSLRAEDTALYYCTRHLDYANYDAMDYWGQGTLVTVSS
VL: DIVMTQSPSSLSASVGDRVTITCRASKSVTTSDFSYMHWYQQKPGKAPKLLIYLASNLESGVPSRFSGSGSGTDFTLTISSLQPEDFATYYCQHSREFPWTFGGGTKVEIK
notes: Humanized antibody of the invention; also called H02L01
For the molecule B16, the binding result is “binds”.
